From patent publication US10227357B2, “Compounds and methods for kinase modulation, and indications therefor” (Plexxikon Inc., priority 2012, dated 2019)
Some results were stated once for a whole list of compounds, not compound by compound.

Chains of the proteins cited; added tags and fusions are not shown.
UniProt P10721, whole entry D816V: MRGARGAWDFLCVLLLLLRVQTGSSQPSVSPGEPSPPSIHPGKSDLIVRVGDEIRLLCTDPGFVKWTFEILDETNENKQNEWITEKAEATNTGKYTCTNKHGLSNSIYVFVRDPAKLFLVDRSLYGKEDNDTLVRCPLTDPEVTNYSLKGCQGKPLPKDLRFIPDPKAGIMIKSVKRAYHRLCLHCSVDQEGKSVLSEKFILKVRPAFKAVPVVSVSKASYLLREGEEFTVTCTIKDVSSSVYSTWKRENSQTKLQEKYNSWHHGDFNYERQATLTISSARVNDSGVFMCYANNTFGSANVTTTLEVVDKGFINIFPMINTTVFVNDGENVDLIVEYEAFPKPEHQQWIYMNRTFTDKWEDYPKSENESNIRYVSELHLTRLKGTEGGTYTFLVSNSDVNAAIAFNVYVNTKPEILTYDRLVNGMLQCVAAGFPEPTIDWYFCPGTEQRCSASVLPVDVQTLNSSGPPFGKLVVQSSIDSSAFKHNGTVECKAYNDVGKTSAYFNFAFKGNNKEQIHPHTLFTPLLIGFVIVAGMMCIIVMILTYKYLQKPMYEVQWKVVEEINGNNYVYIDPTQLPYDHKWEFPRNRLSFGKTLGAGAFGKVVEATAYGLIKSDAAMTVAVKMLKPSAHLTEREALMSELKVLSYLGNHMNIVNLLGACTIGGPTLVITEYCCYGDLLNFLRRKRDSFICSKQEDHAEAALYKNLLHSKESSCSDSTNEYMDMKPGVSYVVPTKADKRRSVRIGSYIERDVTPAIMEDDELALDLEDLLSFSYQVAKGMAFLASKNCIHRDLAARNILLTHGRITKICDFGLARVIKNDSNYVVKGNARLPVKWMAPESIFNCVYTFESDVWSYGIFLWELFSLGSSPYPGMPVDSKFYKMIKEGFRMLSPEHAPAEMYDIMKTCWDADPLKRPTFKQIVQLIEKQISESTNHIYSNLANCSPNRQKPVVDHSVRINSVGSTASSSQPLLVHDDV

The compounds below were run against BaF3-FL KIT D816V cells (Homo sapiens, UniProt P10721, D816V, cells depend on it, form not given) (assay: Cell-based assay of c-Kit mutant kinase activity, BaF3-FL KIT D816V cell proliferation (ATPlite)). Settings: in at least one of the c-kit cell assays described in Example 28 (BaF3-FL KIT D816V or BaF3-FL KIT V560G/D816V); read-out: IC50 (the source's name).

Structure (SMILES)	GI50
c1nc(-c2cnc(C3CC3)nc2)c2cc(-c3cnc(C4CC4)nc3)[nH]c2n1 [P-0384, 4,6-bis(2-cyclopropylpyrimidin-5-yl)-7H-pyrrolo[2,3-d]pyrimidine]	< 10 µM
NS(=O)(=O)c1ccc(-c2ncnc3[nH]c(-c4cnc(C5CC5)nc4)cc23)cc1 [P-0385, 4-[6-(2-cyclopropylpyrimidin-5-yl)-7H-pyrrolo[2,3-d]pyrimidin-4-yl]benzenesulfonamide]	< 10 µM
O=S(=O)(NC1CC1)c1ccc(-c2ncnc3[nH]c(-c4cnc(C5CC5)nc4)cc23)cc1 [P-0386, N-cyclopropyl-4-[6-(2-cyclopropylpyrimidin-5-yl)-7H-pyrrolo[2,3-d]pyrimidin-4-yl]benzenesulfonamide]	< 10 µM
O=S(=O)(Nc1ccc(-c2cc3c(-c4ccc(NS(=O)(=O)C5CC5)cc4F)ncnc3[nH]2)c(F)c1)C1CC1 [P-0387, N-[4-[4-[4-(cyclopropylsulfonylamino)-2-fluoro-phenyl]-7H-pyrrolo[2,3-d]pyrimidin-6-yl]-3-fluoro-phenyl]cyclopropanesulfonamide]	< 10 µM
Cc1ccc(S(=O)(=O)Nc2ccc(-c3ncnc4[nH]c(C)cc34)cc2)cc1 [P-0390, 4-methyl-N-[4-(6-methyl-7H-pyrrolo[2,3-d]pyrimidin-4-yl)phenyl]benzenesulfonamide]	< 10 µM
Fc1ccc(-c2cc3c(-c4ccncc4)ncnc3[nH]2)cc1 [P-0392, 6-(4-fluorophenyl)-4-(4-pyridyl)-7H-pyrrolo[2,3-d]pyrimidine]	< 10 µM
COc1ccc(-c2cc3c(-c4ccc(OC)nc4)ncnc3[nH]2)cn1 [P-0393, 4,6-bis(6-methoxy-3-pyridyl)-7H-pyrrolo[2,3-d]pyrimidine]	< 10 µM
COc1ccc(-c2ncnc3[nH]c(-c4ccc(F)cc4)cc23)cn1 [P-0394, 6-(4-fluorophenyl)-4-(6-methoxy-3-pyridyl)-7H-pyrrolo[2,3-d]pyrimidine]	< 10 µM
Fc1ccc(-c2cc3c(-c4ccc(F)cc4)ncnc3[nH]2)cc1 [P-0395, 4,6-bis(4-fluorophenyl)-7H-pyrrolo[2,3-d]pyrimidine]	< 10 µM
O=S(=O)(Nc1ccc(-c2ncnc3[nH]c(-c4ccc(F)cc4)cc23)c(F)c1)c1ccc(Cl)cc1 [P-0396, 4-chloro-N-[3-fluoro-4-[6-(4-fluorophenyl)-7H-pyrrolo[2,3-d]pyrimidin-4-yl]phenyl]benzenesulfonamide]	< 10 µM
CCCS(=O)(=O)Nc1ccc(-c2ncnc3[nH]c(-c4ccc(F)cc4)cc23)c(F)c1 [P-0397, N-[3-fluoro-4-[6-(4-fluorophenyl)-7H-pyrrolo[2,3-d]pyrimidin-4-yl]phenyl]propane-1-sulfonamide]	< 10 µM
CS(=O)(=O)Nc1ccc(-c2ncnc3[nH]c(-c4ccc(F)cc4)cc23)c(F)c1 [P-0398, N-[3-fluoro-4-[6-(4-fluorophenyl)-7H-pyrrolo[2,3-d]pyrimidin-4-yl]phenyl]methanesulfonamide]	< 10 µM
CS(=O)(=O)Nc1ccc(-c2ncnc3[nH]c(-c4ccc(F)cc4)cc23)cc1F [P-0399, N-[2-fluoro-4-[6-(4-fluorophenyl)-7H-pyrrolo[2,3-d]pyrimidin-4-yl]phenyl]methanesulfonamide]	< 10 µM
O=S(=O)(Nc1ccc(-c2ncnc3[nH]c(-c4ccc(F)cc4)cc23)c(F)c1)N1CCCC1 [P-0400, N-[3-fluoro-4-[6-(4-fluorophenyl)-7H-pyrrolo[2,3-d]pyrimidin-4-yl]phenyl]pyrrolidine-1-sulfonamide]	< 10 µM
O=S(=O)(Nc1ccc(-c2ncnc3[nH]c(-c4ccc(F)cc4)cc23)c(F)c1)C1CC1 [P-0401, N-[3-fluoro-4-[6-(4-fluorophenyl)-7H-pyrrolo[2,3-d]pyrimidin-4-yl]phenyl]cyclopropanesulfonamide]	< 10 µM
COc1ccc(S(=O)(=O)Nc2ccc(-c3ncnc4[nH]c(-c5ccc(F)cc5)cc34)c(F)c2)cc1 [P-0402, N-[3-fluoro-4-[6-(4-fluorophenyl)-7H-pyrrolo[2,3-d]pyrimidin-4-yl]phenyl]-4-methoxy-benzenesulfonamide]	< 10 µM
CCCS(=O)(=O)Nc1ccc(-c2ncnc3[nH]c(-c4ccc(F)cc4)cc23)cc1F [P-0403, N-[2-fluoro-4-[6-(4-fluorophenyl)-7H-pyrrolo[2,3-d]pyrimidin-4-yl]phenyl]propane-1-sulfonamide]	< 10 µM
O=S(=O)(Nc1ccc(-c2ncnc3[nH]c(-c4ccc(F)cc4)cc23)cc1)c1ccc(F)cc1 [P-0404, 4-fluoro-N-[4-[6-(4-fluorophenyl)-7H-pyrrolo[2,3-d]pyrimidin-4-yl]phenyl]benzenesulfonamide]	< 10 µM
O=S(=O)(Nc1ccc(-c2ncnc3[nH]c(-c4ccc(F)cc4)cc23)cc1F)N1CCCC1 [P-0405, N-[2-fluoro-4-[6-(4-fluorophenyl)-7H-pyrrolo[2,3-d]pyrimidin-4-yl]phenyl]pyrrolidine-1-sulfonamide]	< 10 µM
CCCNS(=O)(=O)c1ccc(-c2ncnc3[nH]c(-c4ccc(F)cc4)cc23)c(C)c1 [P-0406, 4-[6-(4-fluorophenyl)-7H-pyrrolo[2,3-d]pyrimidin-4-yl]-3-methyl-N-propyl-benzenesulfonamide]	< 10 µM
CCS(=O)(=O)Nc1cccc(-c2ncnc3[nH]c(-c4ccc(F)cc4)cc23)c1 [P-0407, N-[3-[6-(4-fluorophenyl)-7H-pyrrolo[2,3-d]pyrimidin-4-yl]phenyl]ethanesulfonamide]	< 10 µM
COc1ccc(S(=O)(=O)Nc2ccc(-c3ncnc4[nH]c(-c5ccc(F)cc5)cc34)cc2F)cc1 [P-0409, N-[2-fluoro-4-[6-(4-fluorophenyl)-7H-pyrrolo[2,3-d]pyrimidin-4-yl]phenyl]-4-methoxy-benzenesulfonamide]	< 10 µM
O=S(=O)(Nc1ccc(-c2ncnc3[nH]c(-c4ccc(F)cc4)cc23)cc1)N1CCCC1 [P-0411, N-[4-[6-(4-fluorophenyl)-7H-pyrrolo[2,3-d]pyrimidin-4-yl]phenyl]pyrrolidine-1-sulfonamide]	< 10 µM
CC(=O)Nc1cccc(-c2ncnc3[nH]c(-c4ccc(F)cc4)cc23)c1 [P-0412, N-[3-[6-(4-fluorophenyl)-7H-pyrrolo[2,3-d]pyrimidin-4-yl]phenyl]acetamide]	< 10 µM
O=S(=O)(Nc1cccc(-c2ncnc3[nH]c(-c4ccc(F)cc4)cc23)c1)C1CC1 [P-0413, N-[3-[6-(4-fluorophenyl)-7H-pyrrolo[2,3-d]pyrimidin-4-yl]phenyl]cyclopropanesulfonamide]	< 10 µM
Fc1ccc(-c2cc3c(-c4ccc(NCc5ccc(C(F)(F)F)nc5)nc4)ncnc3[nH]2)cc1 [P-0415, 5-[6-(4-fluorophenyl)-7H-pyrrolo[2,3-d]pyrimidin-4-yl]-N-[[6-(trifluoromethyl)-3-pyridyl]methyl]pyridin-2-amine]	< 10 µM
Nc1ccc(-c2ncnc3[nH]c(-c4ccc(F)cc4)cc23)cc1 [P-0416, 4-[6-(4-fluorophenyl)-7H-pyrrolo[2,3-d]pyrimidin-4-yl]aniline]	< 10 µM
CCNc1ccc(-c2ncnc3[nH]c(-c4ccc(F)cc4)cc23)cn1 [P-0417, N-ethyl-5-[6-(4-fluorophenyl)-7H-pyrrolo[2,3-d]pyrimidin-4-yl]pyridin-2-amine]	< 10 µM
NS(=O)(=O)c1ccc(-c2ncnc3[nH]c(-c4ccc(F)cc4)cc23)cc1 [P-0418, 4-[6-(4-fluorophenyl)-7H-pyrrolo[2,3-d]pyrimidin-4-yl]benzenesulfonamide]	< 10 µM
